Laboratory results reported in article PMC12024163, “Competitive Ligand-Induced Recruitment of Coactivators to Specific PPARα/δ/γ Ligand-Binding Domains Revealed by Dual-Emission FRET and X-Ray Diffraction of Cocrystals” (Antioxidants, 2025).
No constants are given. Whether binding was seen depends on the method and setting. Some entries that bind do so weakly or less than the wild type. For some assays here: Where a sequence is shown, tags or fusion partners need not be part of it.

By UniProt entry, the sequences of proteins in these tests, tags left out. Residues count along the entry.
UniProt P37231, residues 231-505: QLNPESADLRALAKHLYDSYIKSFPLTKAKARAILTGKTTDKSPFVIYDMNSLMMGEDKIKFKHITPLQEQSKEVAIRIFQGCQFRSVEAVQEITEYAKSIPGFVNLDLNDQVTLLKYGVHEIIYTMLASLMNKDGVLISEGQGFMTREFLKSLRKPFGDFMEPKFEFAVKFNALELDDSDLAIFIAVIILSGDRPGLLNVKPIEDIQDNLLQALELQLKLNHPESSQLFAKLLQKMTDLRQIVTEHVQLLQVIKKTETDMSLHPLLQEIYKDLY

T1: Human PPARα-LBD (amino acids 200–468), His-tag cleaved with thrombin (human) (UniProt Q07869)
T1 sequence: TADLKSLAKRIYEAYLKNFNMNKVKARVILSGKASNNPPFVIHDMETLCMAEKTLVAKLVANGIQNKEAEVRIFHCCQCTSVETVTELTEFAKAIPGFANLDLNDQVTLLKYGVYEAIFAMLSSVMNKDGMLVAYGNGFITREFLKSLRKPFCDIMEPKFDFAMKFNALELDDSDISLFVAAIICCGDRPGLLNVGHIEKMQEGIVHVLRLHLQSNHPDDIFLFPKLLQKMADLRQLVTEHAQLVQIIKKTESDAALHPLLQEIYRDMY


Assays:
[1] = molecular target: T1, Human PPARα-LBD (amino acids 200–468), His-tag cleaved with thrombin (human); assay: crystal structure; hanging-drop cocrystals of His-cleaved LBD (20 mg/mL) with NCoR2 peptide (2 mM), no ligand in the structure; 20 °C; both purified
[2] = molecular target: Human PPARγ-LBD (amino acids 203–477 in isoform 1), amino-terminal His-tagged (human) (UniProt P37231); assay: FRET or BRET; single-emission TR-FRET (LANCE Ultra); His-tagged LBD (9.5 µL of 400 nM) with Tb cryptate anti-6×His antibody, biotin peptide (5 µL of 1 µM) with ULight-Streptavidin or FITC-Ahx peptide; buffer A (20 mM HEPES pH 7.4, 150 mM NaCl, 1 mM EDTA, 1 mM DTT, 0.005% Tween 20, 0.1% fatty acid-free BSA); room temperature, 2 h; without agonist (vehicle 1% DMSO); both purified

binding [1]	Binder	binding [2]
binds	TNMGLEAIIRKALMGKYDQWEE [NCoR2 peptide used for cocrystallization (…)]	–
–	PVSSMAGNTKNHPMLMNLLKDNPAQ (FITC-Ahx on the N-terminus (printed FITC-Ahx-PVSSM...)) [TRAP220 coactivator peptide, FITC-Ahx-labeled (AAs 631–655)]	no binding (condition: without pioglitazone)
